For at least one entry, the source does not settle the construct or the ends of the probe.
Tested on: GST-MZD (Zn-finger domains of Mamo)
Test: EMSA
Conditions: 20 mM HEPES pH 7.6, 1 mM EDTA, 10 mM (NH4)2SO4, 1 mM DTT, 0.2% Tween20, 30 mM KCl, 1 ug poly[d(I-C)], 0.1 ug poly-L-lysine; 60 ng protein, 30 fmol probe; 15 min, 25 C; recombinant protein; protein details: N-terminal GST (pGEX); label: DIG

Q: Does “ATTTGTTTTTCCTGCGTTGCCTGCTGAGT (double strand) [vas-A]” bind?
A: binds

— paper PMC6868150
